Drawing on publication PMC5366912, this text covers binding for one substance.

Chains of the proteins cited; added tags and fusions are not shown.
UniProt P35579: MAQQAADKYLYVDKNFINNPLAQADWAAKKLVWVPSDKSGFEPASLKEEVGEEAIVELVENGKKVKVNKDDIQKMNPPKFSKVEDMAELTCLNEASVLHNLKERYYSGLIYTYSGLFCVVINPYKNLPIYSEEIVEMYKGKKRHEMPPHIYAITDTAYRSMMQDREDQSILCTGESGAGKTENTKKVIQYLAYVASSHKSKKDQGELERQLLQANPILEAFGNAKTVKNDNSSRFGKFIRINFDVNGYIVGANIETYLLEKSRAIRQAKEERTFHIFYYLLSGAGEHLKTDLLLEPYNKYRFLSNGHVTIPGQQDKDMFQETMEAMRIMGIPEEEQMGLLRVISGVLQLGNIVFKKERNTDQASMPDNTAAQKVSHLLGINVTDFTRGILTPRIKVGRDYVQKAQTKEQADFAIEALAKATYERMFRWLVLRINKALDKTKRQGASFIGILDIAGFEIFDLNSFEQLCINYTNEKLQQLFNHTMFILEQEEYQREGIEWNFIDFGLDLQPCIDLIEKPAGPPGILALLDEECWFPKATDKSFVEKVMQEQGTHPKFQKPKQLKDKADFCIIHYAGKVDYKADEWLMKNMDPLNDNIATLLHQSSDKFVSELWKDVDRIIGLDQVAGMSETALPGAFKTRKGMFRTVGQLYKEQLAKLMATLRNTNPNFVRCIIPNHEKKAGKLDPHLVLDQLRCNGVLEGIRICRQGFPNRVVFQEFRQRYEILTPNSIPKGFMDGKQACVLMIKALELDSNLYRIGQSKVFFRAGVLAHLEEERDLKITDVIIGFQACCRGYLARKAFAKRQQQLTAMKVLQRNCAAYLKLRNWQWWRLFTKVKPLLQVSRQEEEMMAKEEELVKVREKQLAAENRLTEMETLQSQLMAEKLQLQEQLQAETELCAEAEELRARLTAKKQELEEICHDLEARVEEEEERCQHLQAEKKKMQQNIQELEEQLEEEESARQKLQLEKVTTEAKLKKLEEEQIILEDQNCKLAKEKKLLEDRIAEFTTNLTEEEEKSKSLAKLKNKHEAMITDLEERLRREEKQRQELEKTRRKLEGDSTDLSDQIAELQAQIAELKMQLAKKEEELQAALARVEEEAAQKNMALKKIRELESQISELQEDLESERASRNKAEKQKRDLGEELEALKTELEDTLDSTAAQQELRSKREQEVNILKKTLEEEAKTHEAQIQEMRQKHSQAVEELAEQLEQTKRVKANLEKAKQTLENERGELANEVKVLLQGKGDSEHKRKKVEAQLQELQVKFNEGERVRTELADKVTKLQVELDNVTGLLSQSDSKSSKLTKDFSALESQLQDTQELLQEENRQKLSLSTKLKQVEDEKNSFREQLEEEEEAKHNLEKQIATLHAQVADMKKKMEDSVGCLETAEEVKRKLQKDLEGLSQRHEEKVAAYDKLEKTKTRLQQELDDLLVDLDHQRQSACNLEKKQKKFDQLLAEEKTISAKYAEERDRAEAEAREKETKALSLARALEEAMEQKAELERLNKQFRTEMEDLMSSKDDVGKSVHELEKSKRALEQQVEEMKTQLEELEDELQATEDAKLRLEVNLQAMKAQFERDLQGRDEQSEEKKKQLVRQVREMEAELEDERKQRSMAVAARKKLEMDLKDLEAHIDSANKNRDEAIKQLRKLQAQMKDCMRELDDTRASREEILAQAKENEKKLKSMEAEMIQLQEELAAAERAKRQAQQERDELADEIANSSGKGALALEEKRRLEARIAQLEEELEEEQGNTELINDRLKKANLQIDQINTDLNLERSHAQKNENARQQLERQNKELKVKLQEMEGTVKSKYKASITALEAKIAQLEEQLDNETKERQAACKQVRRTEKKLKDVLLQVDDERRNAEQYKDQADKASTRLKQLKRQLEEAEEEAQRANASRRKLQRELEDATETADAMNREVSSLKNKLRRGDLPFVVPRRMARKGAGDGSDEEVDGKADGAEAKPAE

For the test, the target named is T1, C9ORF135 protein (chromosome 9 open reading frame 135), isoform 1 (human (endogenous in hESCs)) (UniProt Q5VTT2).
T1 sequence: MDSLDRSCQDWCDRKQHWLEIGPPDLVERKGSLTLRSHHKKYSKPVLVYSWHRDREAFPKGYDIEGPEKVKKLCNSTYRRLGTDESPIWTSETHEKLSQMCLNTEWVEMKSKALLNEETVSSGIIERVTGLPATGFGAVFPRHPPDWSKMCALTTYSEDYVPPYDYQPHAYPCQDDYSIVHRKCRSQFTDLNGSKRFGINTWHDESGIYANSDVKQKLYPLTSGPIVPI
Put plainly: co-IP; hESC lysate precipitated with anti-C9ORF135 (control: normal IgG), blotted with myosin IIA antibody; input 10% lysate.

No constants are given. Whether binding was seen depends on the method and setting. In cells and extracts the contact can be indirect. Some results given as binding are weak or reduced against the parent protein; the word gives no strength.

Regarding “myosin-9 (MYH9, myosin-IIA) (from UniProt P35579 1-1960)”, the binding result is reported as “binds”.
